Measurements reported in the supplement of paper PMC12819154, “High-throughput peptide-centric local stability assay extends protein–ligand identification to membrane proteins, tissues and bacteria” (Nature Structural & Molecular Biology, 2025).
This is one part of the list. Most values lie at the level of the controls, where differences are scatter.

By UniProt entry, the sequences of proteins in these tests, tags left out. Where a name states a change or a piece, a line headed by the entry shows the natural chain unless it says otherwise.
UniProt P45591, whole entry: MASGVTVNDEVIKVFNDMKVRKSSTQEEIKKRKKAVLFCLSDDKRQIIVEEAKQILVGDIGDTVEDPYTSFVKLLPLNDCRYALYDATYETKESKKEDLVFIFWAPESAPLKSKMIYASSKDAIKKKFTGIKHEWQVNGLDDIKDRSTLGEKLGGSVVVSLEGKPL
UniProt P28651: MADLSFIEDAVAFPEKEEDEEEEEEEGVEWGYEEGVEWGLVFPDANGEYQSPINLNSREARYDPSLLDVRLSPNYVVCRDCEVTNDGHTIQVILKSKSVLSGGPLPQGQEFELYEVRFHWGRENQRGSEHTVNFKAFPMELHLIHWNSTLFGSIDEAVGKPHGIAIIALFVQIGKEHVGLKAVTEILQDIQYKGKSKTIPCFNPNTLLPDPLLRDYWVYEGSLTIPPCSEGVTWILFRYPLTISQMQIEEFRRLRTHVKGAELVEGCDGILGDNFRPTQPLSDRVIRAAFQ
UniProt P54227: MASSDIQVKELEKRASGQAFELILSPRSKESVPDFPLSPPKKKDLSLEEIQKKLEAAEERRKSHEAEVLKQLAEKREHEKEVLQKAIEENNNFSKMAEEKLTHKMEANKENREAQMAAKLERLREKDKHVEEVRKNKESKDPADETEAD
UniProt P30115: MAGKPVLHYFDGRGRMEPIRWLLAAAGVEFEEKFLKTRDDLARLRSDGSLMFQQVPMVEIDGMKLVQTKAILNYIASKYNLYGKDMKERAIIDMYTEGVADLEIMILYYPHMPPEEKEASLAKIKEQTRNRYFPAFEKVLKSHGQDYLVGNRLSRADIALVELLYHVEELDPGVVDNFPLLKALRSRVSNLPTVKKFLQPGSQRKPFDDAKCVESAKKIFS
UniProt P36423: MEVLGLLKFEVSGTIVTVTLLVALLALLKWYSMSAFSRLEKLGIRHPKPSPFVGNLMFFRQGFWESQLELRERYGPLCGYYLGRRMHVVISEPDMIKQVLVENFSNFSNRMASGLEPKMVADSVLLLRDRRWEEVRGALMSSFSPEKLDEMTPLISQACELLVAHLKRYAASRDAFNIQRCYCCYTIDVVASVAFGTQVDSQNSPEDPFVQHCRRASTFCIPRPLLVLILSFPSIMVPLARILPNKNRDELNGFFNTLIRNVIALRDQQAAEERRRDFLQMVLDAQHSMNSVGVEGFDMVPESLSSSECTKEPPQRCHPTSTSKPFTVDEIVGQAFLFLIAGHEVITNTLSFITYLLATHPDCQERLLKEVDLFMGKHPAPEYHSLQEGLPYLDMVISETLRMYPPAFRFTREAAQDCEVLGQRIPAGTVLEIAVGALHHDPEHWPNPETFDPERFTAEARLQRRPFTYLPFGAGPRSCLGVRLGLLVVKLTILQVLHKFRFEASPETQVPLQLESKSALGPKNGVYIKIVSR
UniProt P42227, whole entry: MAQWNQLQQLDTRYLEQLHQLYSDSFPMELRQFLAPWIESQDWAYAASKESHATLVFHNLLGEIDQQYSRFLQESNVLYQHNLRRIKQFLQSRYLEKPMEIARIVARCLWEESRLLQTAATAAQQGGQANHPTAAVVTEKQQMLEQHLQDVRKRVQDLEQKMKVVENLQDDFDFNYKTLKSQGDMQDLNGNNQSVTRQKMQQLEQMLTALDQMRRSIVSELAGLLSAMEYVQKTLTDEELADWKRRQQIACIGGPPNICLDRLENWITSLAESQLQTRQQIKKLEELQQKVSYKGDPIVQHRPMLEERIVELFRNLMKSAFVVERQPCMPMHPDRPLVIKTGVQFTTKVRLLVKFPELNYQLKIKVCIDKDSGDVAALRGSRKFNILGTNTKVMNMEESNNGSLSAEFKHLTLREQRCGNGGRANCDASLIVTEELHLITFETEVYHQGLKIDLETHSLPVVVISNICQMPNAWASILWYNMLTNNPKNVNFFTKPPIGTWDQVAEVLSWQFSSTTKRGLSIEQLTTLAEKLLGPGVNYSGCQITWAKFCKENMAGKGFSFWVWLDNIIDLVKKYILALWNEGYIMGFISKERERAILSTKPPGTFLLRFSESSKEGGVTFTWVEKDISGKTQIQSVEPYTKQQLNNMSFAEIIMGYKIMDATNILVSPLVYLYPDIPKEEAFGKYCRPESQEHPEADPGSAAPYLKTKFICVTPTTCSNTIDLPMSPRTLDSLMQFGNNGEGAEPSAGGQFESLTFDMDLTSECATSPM
UniProt P51855: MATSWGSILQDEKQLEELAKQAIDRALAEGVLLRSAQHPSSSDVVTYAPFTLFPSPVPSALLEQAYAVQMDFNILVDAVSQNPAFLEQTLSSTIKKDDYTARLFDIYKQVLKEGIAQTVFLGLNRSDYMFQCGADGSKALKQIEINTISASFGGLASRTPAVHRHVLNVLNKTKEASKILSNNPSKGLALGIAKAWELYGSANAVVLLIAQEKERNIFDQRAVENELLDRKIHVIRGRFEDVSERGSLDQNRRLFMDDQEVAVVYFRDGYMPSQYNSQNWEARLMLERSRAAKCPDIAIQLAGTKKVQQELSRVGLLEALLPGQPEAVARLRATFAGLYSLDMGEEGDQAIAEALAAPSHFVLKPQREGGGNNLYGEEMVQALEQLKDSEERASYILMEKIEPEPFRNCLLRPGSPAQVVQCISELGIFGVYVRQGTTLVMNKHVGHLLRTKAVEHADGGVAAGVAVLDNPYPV
UniProt P50462: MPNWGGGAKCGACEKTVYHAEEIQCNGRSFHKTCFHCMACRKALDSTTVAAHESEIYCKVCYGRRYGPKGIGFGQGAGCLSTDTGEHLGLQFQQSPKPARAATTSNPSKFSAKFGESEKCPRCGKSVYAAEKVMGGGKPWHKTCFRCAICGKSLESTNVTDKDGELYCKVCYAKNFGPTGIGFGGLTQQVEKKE
UniProt P56183: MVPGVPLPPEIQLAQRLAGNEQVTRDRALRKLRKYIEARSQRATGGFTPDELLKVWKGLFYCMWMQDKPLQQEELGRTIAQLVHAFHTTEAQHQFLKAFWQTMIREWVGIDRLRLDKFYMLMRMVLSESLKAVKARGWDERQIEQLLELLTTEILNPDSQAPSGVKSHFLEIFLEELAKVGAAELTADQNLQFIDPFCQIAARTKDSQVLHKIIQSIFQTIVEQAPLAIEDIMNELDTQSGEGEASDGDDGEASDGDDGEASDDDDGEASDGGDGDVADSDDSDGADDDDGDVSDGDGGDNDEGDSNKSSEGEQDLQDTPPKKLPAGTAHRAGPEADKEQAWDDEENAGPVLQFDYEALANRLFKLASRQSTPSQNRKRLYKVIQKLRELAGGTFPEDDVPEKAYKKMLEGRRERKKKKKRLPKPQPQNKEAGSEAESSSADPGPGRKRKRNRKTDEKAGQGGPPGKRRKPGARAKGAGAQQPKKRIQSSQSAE
UniProt P47738: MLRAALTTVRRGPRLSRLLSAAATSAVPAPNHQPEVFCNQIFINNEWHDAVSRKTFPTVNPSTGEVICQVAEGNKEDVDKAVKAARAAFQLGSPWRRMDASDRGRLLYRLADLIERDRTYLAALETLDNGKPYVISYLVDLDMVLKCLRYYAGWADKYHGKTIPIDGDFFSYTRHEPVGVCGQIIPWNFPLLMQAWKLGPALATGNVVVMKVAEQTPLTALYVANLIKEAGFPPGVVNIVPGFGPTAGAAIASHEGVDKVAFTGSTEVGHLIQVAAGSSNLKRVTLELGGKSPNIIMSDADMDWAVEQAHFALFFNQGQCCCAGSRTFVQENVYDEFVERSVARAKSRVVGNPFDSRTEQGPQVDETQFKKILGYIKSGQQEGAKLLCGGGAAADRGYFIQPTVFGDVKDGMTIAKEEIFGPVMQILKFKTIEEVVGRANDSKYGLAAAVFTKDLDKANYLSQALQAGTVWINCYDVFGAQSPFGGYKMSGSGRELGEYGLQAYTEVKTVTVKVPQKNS
UniProt P39039: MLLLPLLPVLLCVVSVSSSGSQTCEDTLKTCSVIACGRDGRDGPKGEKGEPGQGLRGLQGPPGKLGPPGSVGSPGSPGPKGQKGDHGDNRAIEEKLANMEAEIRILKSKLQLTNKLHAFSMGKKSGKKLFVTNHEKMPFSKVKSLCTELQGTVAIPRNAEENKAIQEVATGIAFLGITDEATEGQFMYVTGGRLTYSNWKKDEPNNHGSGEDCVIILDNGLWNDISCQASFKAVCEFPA
UniProt P51880: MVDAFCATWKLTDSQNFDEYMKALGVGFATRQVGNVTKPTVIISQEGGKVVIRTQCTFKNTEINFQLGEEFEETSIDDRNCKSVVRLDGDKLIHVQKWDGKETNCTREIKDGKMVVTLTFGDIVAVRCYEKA
UniProt P31996: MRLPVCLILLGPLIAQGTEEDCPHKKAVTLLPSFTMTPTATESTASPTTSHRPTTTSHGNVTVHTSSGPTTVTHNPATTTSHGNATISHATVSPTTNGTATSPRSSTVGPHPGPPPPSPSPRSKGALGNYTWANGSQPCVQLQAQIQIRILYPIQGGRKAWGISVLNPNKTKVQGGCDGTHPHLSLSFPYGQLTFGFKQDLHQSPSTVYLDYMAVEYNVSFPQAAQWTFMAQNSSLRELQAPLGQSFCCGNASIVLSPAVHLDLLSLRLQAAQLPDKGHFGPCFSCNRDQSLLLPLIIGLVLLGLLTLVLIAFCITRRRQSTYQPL
UniProt P35293: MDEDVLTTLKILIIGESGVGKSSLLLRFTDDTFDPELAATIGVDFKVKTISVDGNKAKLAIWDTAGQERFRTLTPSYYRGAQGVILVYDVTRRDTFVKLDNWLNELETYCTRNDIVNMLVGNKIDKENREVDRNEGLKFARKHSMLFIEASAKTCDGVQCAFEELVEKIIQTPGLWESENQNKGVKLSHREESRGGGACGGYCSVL
UniProt P46737, whole entry: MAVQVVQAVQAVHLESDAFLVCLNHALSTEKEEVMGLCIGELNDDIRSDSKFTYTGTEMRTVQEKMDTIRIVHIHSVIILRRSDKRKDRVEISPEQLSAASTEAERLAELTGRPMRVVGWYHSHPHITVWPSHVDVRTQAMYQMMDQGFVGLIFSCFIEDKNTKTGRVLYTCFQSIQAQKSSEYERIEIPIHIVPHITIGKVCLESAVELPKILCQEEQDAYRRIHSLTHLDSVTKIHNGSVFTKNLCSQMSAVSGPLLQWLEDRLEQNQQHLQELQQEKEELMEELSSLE
UniProt P29758: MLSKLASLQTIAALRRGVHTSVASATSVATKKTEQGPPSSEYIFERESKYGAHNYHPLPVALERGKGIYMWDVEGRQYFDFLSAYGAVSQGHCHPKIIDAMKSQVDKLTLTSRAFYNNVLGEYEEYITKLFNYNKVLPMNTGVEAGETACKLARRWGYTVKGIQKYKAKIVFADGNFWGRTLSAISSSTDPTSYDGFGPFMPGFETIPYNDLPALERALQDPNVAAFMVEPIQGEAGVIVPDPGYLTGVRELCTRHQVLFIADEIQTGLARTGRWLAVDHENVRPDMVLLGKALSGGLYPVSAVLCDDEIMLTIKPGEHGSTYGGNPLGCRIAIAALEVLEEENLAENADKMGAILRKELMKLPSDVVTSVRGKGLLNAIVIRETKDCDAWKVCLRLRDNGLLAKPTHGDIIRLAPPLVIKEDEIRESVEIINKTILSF
UniProt P39054: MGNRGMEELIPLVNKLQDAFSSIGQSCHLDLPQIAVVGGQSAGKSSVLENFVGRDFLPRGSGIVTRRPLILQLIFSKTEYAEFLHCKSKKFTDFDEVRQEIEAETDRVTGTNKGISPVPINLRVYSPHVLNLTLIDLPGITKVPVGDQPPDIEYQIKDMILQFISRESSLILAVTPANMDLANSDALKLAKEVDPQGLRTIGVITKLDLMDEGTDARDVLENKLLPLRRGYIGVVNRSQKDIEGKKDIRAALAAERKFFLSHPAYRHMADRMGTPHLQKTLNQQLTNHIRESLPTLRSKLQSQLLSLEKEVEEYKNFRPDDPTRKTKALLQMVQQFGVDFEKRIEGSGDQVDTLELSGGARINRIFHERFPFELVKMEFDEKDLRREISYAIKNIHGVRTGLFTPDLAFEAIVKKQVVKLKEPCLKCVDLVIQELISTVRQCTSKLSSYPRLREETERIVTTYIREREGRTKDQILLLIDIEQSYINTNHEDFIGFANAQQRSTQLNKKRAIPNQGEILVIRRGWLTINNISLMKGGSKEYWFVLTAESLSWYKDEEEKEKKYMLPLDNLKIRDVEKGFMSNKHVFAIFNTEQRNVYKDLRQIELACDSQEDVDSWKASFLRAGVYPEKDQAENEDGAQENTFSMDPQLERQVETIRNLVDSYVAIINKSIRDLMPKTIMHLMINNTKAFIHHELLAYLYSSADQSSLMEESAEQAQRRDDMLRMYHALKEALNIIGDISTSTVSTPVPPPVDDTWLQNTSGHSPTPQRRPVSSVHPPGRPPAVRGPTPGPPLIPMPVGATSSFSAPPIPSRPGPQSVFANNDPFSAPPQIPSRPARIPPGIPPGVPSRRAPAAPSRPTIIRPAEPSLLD
UniProt P53810: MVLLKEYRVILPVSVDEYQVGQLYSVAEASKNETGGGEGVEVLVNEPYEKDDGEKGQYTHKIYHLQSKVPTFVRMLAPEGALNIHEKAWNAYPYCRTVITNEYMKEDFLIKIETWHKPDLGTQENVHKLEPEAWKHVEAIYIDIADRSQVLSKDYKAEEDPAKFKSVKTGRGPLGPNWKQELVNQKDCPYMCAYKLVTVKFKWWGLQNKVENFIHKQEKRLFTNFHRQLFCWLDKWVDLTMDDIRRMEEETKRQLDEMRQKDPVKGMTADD

Each target was assayed with CN[C@@H]1C[C@H]2O[C@@](C)([C@@H]1OC)n1c3ccccc3c3c4c(c5c6ccccc6n2c5c31)C(=O)NC4 [staurosporine] (assay: log2 fold change of pooled soluble protein (PISA), ligand vs vehicle (log2 ratio); higher = more thermally stabilized). Conditions: ligand concentration: 20 uM; assay format: PISA pool 52.9/55.5/58.6 C.

Row | Target | log2 fold change of pooled soluble protein
1 | UniProt P45591 | -0.00555
2 | UniProt P28651 | 0.146
3 | UniProt P54227 | -0.0493
4 | UniProt P34884 | -0.923
5 | UniProt P55302 | -0.00452
6 | UniProt P30115 | -0.227
7 | UniProt P36423 | 0.249
8 | UniProt P42227 | 0.0486
9 | UniProt P43883 | -0.107
10 | UniProt P52019 | -0.00198
11 | UniProt P56654 | 0.183
12 | UniProt P51855 | 0.0621
13 | UniProt P30681 | 0.104
14 | UniProt P50462 | 0.011
15 | UniProt P49025 | 0.138
16 | UniProt P56183 | 0.0169
17 | UniProt P29351 | -0.211
18 | UniProt P55065 | 0.0757
19 | UniProt P46467 | 0.0243

Given as tab-separated lines: entries from further up
Row	Target	log2 fold change of pooled soluble protein
9	UniProt P43883	-0.107
10	UniProt P52019	-0.00198

Continued.

Row | Target | log2 fold change of pooled soluble protein
20 | UniProt P54254 | -0.245
21 | P31809;Q925P2 | 0.0626
22 | UniProt P47738 | -0.00431
23 | UniProt P31230 | -0.0592
24 | UniProt P50543 | 0.121
25 | UniProt P50171 | -0.0252
26 | UniProt P39039 | -0.116
27 | UniProt P51880 | -0.141
28 | UniProt P31996 | -0.0851
29 | UniProt P29391 | -0.725
30 | UniProt P35293 | -0.121
31 | UniProt P41317 | -0.142
32 | UniProt P46737 | 0.0669
33 | UniProt P29758 | -0.0381
34 | UniProt P40142 | -0.218
35 | UniProt P39054 | -0.398
36 | UniProt P48774 | 0.155
37 | UniProt P53810 | 0.168
